PubChem BioAssay AID1159584 – Peter MacCallum Cancer Centre, 2016

Purpose: 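Genes whose loss is lethal only together with E-cadherin loss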 (primary screen)
Cell system: human MCF10A breast epithelial cells, parental and CDH1-null
Reagent: siRNA against human genes
Detection: 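ATP luminescence (CellTiter-Glo) viability per line relative to mean mock wells over all plates, and the ratio of CDH1-null to parental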
Direction: CDH1-null / parental viability ratio: higher = CDH1-null cells survive relatively better than parental; CDH1-null viability vs mock: higher = more viable CDH1-null cells
The whole screen tested about 18,000 reagents; this is a part drawn at random. Not all columns of the deposit are shown. No sequences are given here. The record does not give: the amount of reagent, the time to read-out.

no.	gene symbol	PubChem SID	CDH1-null / parental viability ratio	CDH1-null viability vs mock (fraction of mock)
1	MAP3K8 (mitogen-activated protein kinase kinase kinase 8)	SID56478664	1.2	0.83
2	SMAP1 (small ArfGAP 1)	SID152153991	0.9	0.92
3	FATE1 (fetal and adult testis expressed 1)	SID152149360	1	0.42
4	WDR38 (WD repeat domain 38)	SID152154806	0.86	0.89
5	GAB2 (GRB2 associated binding protein 2)	SID135622324	0.86	0.76
6	DMRTC1 (DMRT like family C1)	SID135622875	1.12	0.86
7	PEX5 (peroxisomal biogenesis factor 5)	SID134319812	1.08	1.08
8	LPO (lactoperoxidase)	SID134325640	1.01	0.84
9	CDR2 (cerebellar degeneration related protein 2)	SID152151564	0.91	0.42
10	NEU2 (neuraminidase 2)	SID134316356	0.84	0.62
11	PVR (PVR cell adhesion molecule)	SID134319369	1.3	0.9
12	MRPS18B (mitochondrial ribosomal protein S18B)	SID134317283	1.02	0.84
13	APBA3 (amyloid beta precursor protein binding family A member 3)	SID135622231	1.06	0.54
14	CAPS2 (calcyphosine 2)	SID134319021	0.89	0.73
15	HLX (H2.0 like homeobox)	SID135623289	0.88	0.72
16	DRD3 (dopamine receptor D3)	SID152153373	0.81	0.77
17	SPARCL1 (SPARC like 1)	SID152150171	1.38	0.8
18	ZSCAN21 (zinc finger and SCAN domain containing 21)	SID135624172	0.96	0.86
19	TMEM25 (transmembrane protein 25)	SID135623471	0.91	0.62
20	PEDS1 (plasmanylethanolamine desaturase 1)	SID134329670	1.05	0.84
21	GLI2 (GLI family zinc finger 2)	SID135621200	0.94	0.92
22	ZSWIM4 (zinc finger SWIM-type containing 4)	SID152155211	1.12	0.83
23	RPL7L1 (ribosomal protein L7 like 1)	SID152147372	1.09	0.62
24	ANXA1 (annexin A1)	SID134315519	1.03	0.78
25	DAB2IP (DAB2 interacting protein)	SID135621535	1.21	1.02
26	DPH3 (diphthamide biosynthesis 3)	SID135625047	0.8	0.77
27	GRK7 (G protein-coupled receptor kinase 7)	SID135620854	0.99	0.75
28	NR6A1 (nuclear receptor subfamily 6 group A member 1)	SID135620676	0.87	0.85
29	RIN1 (Ras and Rab interactor 1)	SID135623866	0.95	0.55
30	SNCA (synuclein alpha)	SID134315468	0.64	0.64
31	FCGR3B (Fc gamma receptor IIIb)	SID152148715	0.7	0.76
32	KIAA0319	SID135624789	1.05	1.06
33	MUSTN1 (musculoskeletal, embryonic nuclear protein 1)	SID135625040	1.57	0.47
34	NFIX (nuclear factor I X)	SID152147684	0.76	0.74
35	TFDP3 (transcription factor Dp family member 3)	SID134318060	0.89	0.89
36	TBPL1 (TATA-box binding protein like 1)	SID134321201	0.93	0.82
37	CHD8 (chromodomain helicase DNA binding protein 8)	SID152149233	1	0.86
38	WASH5P (WASP family homolog 5, pseudogene)	SID135624821	1.06	1.02
39	EGFR (epidermal growth factor receptor)	SID135620613	0.85	0.22
40	TOR1B (torsin family 1 member B)	SID134318379	1	0.38
41	RAD54B (RAD54 homolog B)	SID134315071	0.99	0.7
42	FYN (FYN proto-oncogene, Src family tyrosine kinase)	SID135620621	0.96	0.77
43	FYB2 (FYN binding protein 2)	SID152149525	0.82	0.56
44	SACM1L (SAC1 like phosphatidylinositide phosphatase)	SID134312341	1.11	0.92
45	LRRC17 (leucine rich repeat containing 17)	SID135623898	1.12	0.92
46	PDSS2 (decaprenyl diphosphate synthase subunit 2)	SID134322401	1.14	1.25
